According to patent US4829051A (Vega Laboratories, Inc., priority 1984, dated 1989):

Experiment: general procedure: Boc solid-phase peptide synthesis
Settings: late stage modification step

Substance: 1-desamino-[2-Phe, 8-Lys-N^ε (Gly)]-vasopressin
- step yield: 54.5%
